Results reported in PubChem BioAssay AID493014 (National Center for Advancing Translational Sciences (NCATS), 2011).
The other results are listed elsewhere or left out. Further columns of the screen follow, without active or inactive calls. The list favours compounds with an active or inconclusive main result. The note in brackets gives the kind of curve behind each potency; many fits are weak.

Assay: qHTS Assay to Find Inhibitors of Chronic Active B-Cell Receptor Signaling
Conditions: ABC-DLBCL IkBa-CBG/CBR reporter, luminescence ratio (green luciferase fused to IkBa over red control in TMD8 lymphoma cells), 4 h
Summary of the method: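 TMD8 ABC-DLBCL cells carrying doxycycline-inducible green luciferase fused to IkappaBalpha plus unfused red luciferase were exposed to compounds (up to 46 uM) for 4 hrs at 37C. Activity came from the overlap-corrected green/red luminescence ratio.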

[1] = measured here: CBR red luminescence, cell number
[2] = measured here: IkBa-CBG green luminescence

SMILES: O=C(NCCc1csc(-c2ccccc2)n1)c1c(F)cccc1Cl
- AC50 [1]: 3.16 µM [rising, partial curve]

SMILES: Cc1ccc(-c2nn3c(C)nnc3c3ccccc23)cc1S(=O)(=O)NCCN1CCOCC1
- AC50 [1]: 35.5 µM [rising, single point]

SMILES: CCSc1nnc(NC(=O)c2cccs2)s1
- AC50 [1]: 6.31 µM [falling, partial curve, poor fit]

SMILES: CCOC(=O)C1CCN(Cc2cnc(Oc3ccc(N)cc3)s2)CC1
- AC50 [1]: 11.6 µM [rising, partial curve, poor fit]

SMILES: O=C(Nc1ccc(Br)cc1Cl)NC1CC1
- AC50 [1]: 3.98 µM [rising, single point]

SMILES: CCOc1ccc2[nH]c(=O)c(C(c3nnnn3Cc3ccco3)N3CCN(C)CC3)cc2c1 (stereo not drawn)
- AC50 [1]: 1 µM [falling, full curve]
- AC50 [2]: 6.31 µM [rising, full curve, poor fit]

SMILES: COc1ccc(CCC(=O)NCCc2ccc(OC)c(OC)c2)cc1
- AC50 [1]: 5.01 µM [rising, single point]

SMILES: COc1ccc(/C=N/NC(=O)c2cnccn2)cc1O
- AC50 [1]: 20.6 µM [falling, single point]

SMILES: Cc1cc2[nH]c3ccccc3c2cn1
- AC50 [1]: 20 µM [falling, partial curve, poor fit]

SMILES: CC(C)c1nc(N2CCN(C(=O)c3ccco3)CC2)c2c3c(sc2n1)CCCC3
- AC50 [1]: 29.1 µM [falling, single point]

SMILES: COc1cc(/C=N/N=C(N)N)ccc1OCc1ccccc1Cl
- AC50 [1]: 25.1 µM [falling, single point]

SMILES: Cc1cc(C)nc(N/N=C/c2ccccc2OCC(=O)O)n1
- AC50 [1]: 15.8 µM [falling, partial curve, poor fit]

SMILES: Cc1csc(NC(=O)c2ccc(N3CCCC3=O)cc2)n1
- AC50 [1]: 2.82 µM [falling, partial curve, poor fit]

SMILES: CCOc1ccccc1N(C(=O)c1snc(C(N)=O)c1N)C(C(=O)NCCC(C)C)c1ccco1 (stereo not drawn)
- AC50 [1]: 15.8 µM [falling, single point]

SMILES: CC(C)(C)c1ccc(OCCCC(=O)Nc2cccc(S(=O)(=O)N3CCOCC3)c2)cc1
- AC50 [1]: 23.1 µM [falling, single point]

SMILES: Clc1ccc(-c2nnc(NCc3ccccc3)c3ccccc23)cc1
- AC50 [1]: 1.46 µM [rising, full curve, poor fit]

SMILES: CCn1nccc1C(=O)Nc1nc2ccccc2n1CCN1CCCCC1
- AC50 [1]: 35.5 µM [falling, single point]

SMILES: CC(C)(C)OC(=O)[C@H](Cc1ccccc1)NC(=O)c1[nH]cnc1C(=O)Nc1cccc(Cl)c1
- AC50 [1]: 31.6 µM [rising, single point]

SMILES: O=C(Nc1ccc(Cc2ccncc2)cc1)C1CCC(N2C(=O)C3CCCCC3C2=O)CC1 (stereo not drawn)
- AC50 [1]: 15.8 µM [rising, partial curve, poor fit]

SMILES: O=C(CCC1CCCC1)N1CCN(C2CCCC2)CC1
- AC50 [1]: 0.13 µM [falling, full curve, poor fit]

SMILES: O/N=C\c1ccc(-c2ccccc2)o1
- AC50 [1]: 0.058 µM [rising, full curve, poor fit]

SMILES: O=C(Nc1ccc(F)cc1)C(c1ccccc1)N1CCN(S(=O)(=O)c2c(F)cccc2F)CC1 (stereo not drawn)
- AC50 [1]: 23.1 µM [rising, partial curve, poor fit]

SMILES: CC(C)COCC(CN(Cc1ccccc1)c1ccccc1)N1CCCC1 (stereo not drawn)
- AC50 [1]: 35.5 µM [falling, single point]

SMILES: Oc1ccccc1N1CCN(c2ncccn2)CC1
- AC50 [1]: 0.58 µM [rising, full curve]

SMILES: O=C(Oc1ccc(Cl)c2cccnc12)C12CC3CC(CC(C3)C1)C2
- AC50 [2]: 4.61 µM [falling, full curve]

SMILES: Cc1ccccc1OC(C)C(=O)NC1CCCC1 (stereo not drawn)
- AC50 [1]: 6.51 µM [rising, partial curve, poor fit]

SMILES: N=c1n(CCN2CCOCC2)c2ccccc2n1CC(=O)c1ccc(Cl)c(Cl)c1
- AC50 [1]: 4.47 µM [falling, partial curve, poor fit]

SMILES: O=C(Nc1cc(S(=O)(=O)N2CCOCC2)ccc1N1CCOCC1)c1ccccc1[N+](=O)[O-]
- AC50 [1]: 13 µM [rising, single point]

SMILES: O=C(c1cc(-c2ccc(F)cc2)on1)N1CCCC1
- AC50 [1]: 7.08 µM [falling, partial curve]

SMILES: CSc1ccccc1NC(=O)Nc1cccc(Cl)c1Cl
- AC50 [1]: 2.59 µM [falling, full curve]

SMILES: COc1ccc2c(CC(=O)NCc3ccc4c(c3)OCO4)coc2c1
- AC50 [1]: 2.59 µM [falling, full curve]

SMILES: COC(=O)[C@@H](CC(C)C)NS(=O)(=O)N(Cc1ccccc1)[C@@H](CC(C)C)C(=O)OC
- AC50 [1]: 23.1 µM [falling, single point]

SMILES: C/C(=N/NC(=O)c1cccs1)c1cccc(N)c1
- AC50 [1]: 20 µM [falling, partial curve]

SMILES: COc1cc(OC)c(-c2cc(C(=O)O)ccc2OC)c(OC)c1
- AC50 [1]: 18.4 µM [rising, partial curve, poor fit]

SMILES: Cc1ccc(SCC(=O)c2c(C)[nH]c3ccccc23)cc1
- AC50 [1]: 0.58 µM [rising, partial curve]

SMILES: Cc1ccc(NC(=O)c2ccc(NCCCN3CCC(C)CC3)c([N+](=O)[O-])c2)cc1F
- AC50 [1]: 8.91 µM [falling, partial curve]

SMILES: COc1ccccc1C(=O)Nc1ccc2c(c1)OCO2
- AC50 [1]: 25.9 µM [falling, single point]

SMILES: Cc1ccc(C(=O)NCCN2C3=NC[C@@H](Cc4ccccc4)N3C[C@H]2Cc2ccc(O)cc2)cc1Br
- AC50 [1]: 35.5 µM [falling, single point]

SMILES: CCSc1ccc2nnc(-c3ccc(F)cc3)n2n1
- AC50 [1]: 14.6 µM [falling, single point]

SMILES: COc1ccc2c(c1OC)C(=O)N1N=C(c3ccc(O)cc3)CC21 (stereo not drawn)
- AC50 [1]: 5.8 µM [falling, partial curve]

SMILES: COc1cccc(C(=O)NC(=O)Nc2cc(C)on2)c1
- AC50 [1]: 10 µM [falling, partial curve, poor fit]

SMILES: COc1cc(OC)c(OC)cc1/C=C/C(=O)c1ccc(NS(=O)(=O)c2ccc(C)cc2)cc1
- AC50 [1]: 16.4 µM [falling, single point]
- AC50 [2]: 23.1 µM [falling, partial curve, poor fit]

SMILES: CCCCOc1ccc(/C(O)=C2/C(=O)C(=O)N(CCN(C)C)C2c2ccc(O)c(OC)c2)cc1 (stereo not drawn)
- AC50 [1]: 14.1 µM [falling, partial curve, poor fit]

SMILES: COc1ccccc1[C@]1(C)ON(c2ccccc2C(F)(F)F)C1=O
- AC50 [1]: 13 µM [falling, single point]

SMILES: Cc1ccc(S(=O)(=O)Nc2ccc(O)c3ccccc23)c(C)c1
- AC50 [1]: 31.6 µM [falling, single point]

SMILES: Cc1c(Nc2cc(N3CCOCC3)c3nonc3c2[N+](=O)[O-])c(=O)n(-c2ccccc2)n1C
- AC50 [1]: 22.4 µM [rising, single point]

SMILES: O=C1CCCN1CCCN=c1c([N+](=O)[O-])nn(-c2ccc(Cl)cc2)n1O
- AC50 [1]: 3.55 µM [rising, full curve, poor fit]

SMILES: COC(=O)[C@@]12CCCN1[C@H](c1ccc(-c3ccc(Cl)c(Cl)c3)cc1)[C@H]1C(=O)N(C)C(=O)[C@H]12
- AC50 [1]: 29.1 µM [falling, single point]

SMILES: O=C(/C=C(\c1ccc(Cl)cc1)n1cncn1)c1ccc(Cl)cc1
- AC50 [1]: 0.58 µM [rising, full curve]

SMILES: Cc1cc(C)c(C)c(S(=O)(=O)NC(C(=O)O)C(C)C)c1C (stereo not drawn)
- AC50 [1]: 0.316 µM [rising, full curve, poor fit]

SMILES: O=C(N/N=C/C(Cl)=C/c1ccccc1)c1ccc2c(c1)OCO2
- AC50 [1]: 5.17 µM [falling, partial curve]

SMILES: COC(=O)N1C(=O)[C@@](c2ccccc2)(C(C)C)N1C(=O)OC
- AC50 [1]: 2.24 µM [falling, full curve]

SMILES: COc1ccccc1-n1c(N)c(C(=O)NCC2CCCO2)c2nc3ccccc3nc21 (stereo not drawn)
- AC50 [1]: 16.4 µM [falling, partial curve]

SMILES: COCc1cc(CN2CCN(C)CC2)c(O)c2ncccc12
- AC50 [1]: 0.184 µM [rising, full curve, poor fit]
- AC50 [2]: 20.6 µM [falling, single point]

SMILES: O=C(NCCc1ccco1)c1cc(COc2cccc(C(F)(F)F)c2)on1
- AC50 [1]: 35.5 µM [falling, single point]

SMILES: CCOc1ccc(N2CC(=O)SC2=S)cc1
- AC50 [1]: 6.31 µM [rising, single point]
- AC50 [2]: 8.91 µM [falling, partial curve, poor fit]

SMILES: C/C(=N\NC(=O)COc1ccccc1-c1ccccc1)c1cccnc1
- AC50 [1]: 11.2 µM [rising, partial curve, poor fit]
- AC50 [2]: 25.1 µM [falling, single point]

SMILES: CC(=O)c1ccc(NC(=O)c2noc3c2CCC3)cc1
- AC50 [1]: 15.8 µM [falling, partial curve, poor fit]

SMILES: COC(=O)c1ccccc1NC(=O)CSc1nnc(Cc2ccc(Cl)cc2)o1
- AC50 [1]: 2.91 µM [rising, full curve, poor fit]

SMILES: Cc1cccc(-n2nnc(C(=O)NCc3ccccc3)c2N)c1
- AC50 [1]: 29.1 µM [falling, single point]

SMILES: CC(CC(=O)Nc1cccnc1)c1ccccc1 (stereo not drawn)
- AC50 [1]: 7.94 µM [rising, partial curve, poor fit]

SMILES: COc1cc(/C=C/C(=O)OCC(=O)Nc2sc3c(c2C#N)CCC(C)C3)ccc1OCC#N (stereo not drawn)
- AC50 [1]: 1.78 µM [rising, full curve, poor fit]

SMILES: Cc1ccc(C(=O)N2CCC(n3nccc3NC(=O)c3ccccc3C)CC2)cn1
- AC50 [1]: 12.6 µM [rising, single point]
